# Some of the results follow.
# B1: PX9961KLbvu-535-38-535 (Bacteroides vulgatus) (protein)
# chain: DKAYTDAESYTKGLHKIYSVWALSGQDGSSSSDISGLDAGNTALLRCWWTLQEQPTDEMKNAWNDAWCTEVNYMTWTTNKVEPIEGVYQRCMYIVALVNEFLKNIPNAPESIDKESYIAQARFNRAFAYYVLMDMFALPPFITEKNYSIEPAPLSREDLFNWIEAELNEIKPNLPSPRSEYGVADQAVASALLARMYLNAEIYTGKARYTECINACNEVIKAGYQLADNYADLFKADNGENPDTKKEIIYPIIFDGDKTQSWGMAAIIIGARGAEDKDVLLAHSGVDQGWAGFRATSNLVHLFDFQNDEEPKASEIQDKRGIFYDKGRSIDITSSVSGTFETEGWSVFKFSNLNSNGQPGKNTLWVDTDFPMFRLGDIYLMYAEAVARGGEGSKASAVEYINALRKRAYGDDKHNISENWLEENNFRNLLDERGRELYWEGIRRTDLVRFDLLTSGSYTWDFKGGINTGVGVNKRYNVYPIPVTDLTVNGNLQQNEGY
# Columns and labels:
# Experiment in all cases: glycan array binding signal (z-score within array); higher = stronger binding
# Settings in all cases: glycan notation: IUPAC condensed, linker removed
# [1] = biological target: Gal(b1-4)GlcNAc(b1-2)Man(a1-3)[Gal(b1-4)GlcNAc(b1-2)Man(a1-6)]Man(b1-4)GlcNAc(b1-4)[Fuc(a1-6)]GlcNAc
# In short: (§1)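 The binding signal is a Z-score computed within each array. Data were drawn from 3228 arrays in the Consortium for Functional Glycomics database, restricted to those with a known protein sequence. Scores were averaged over arrays of the same protein sequence at different concentrations or buffers, and over linkers, and negative values can be taken as non-binding.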
# [2] = biological target: Gal(b1-4)GlcNAc(b1-2)Man(a1-3)[Gal(b1-4)GlcNAc(b1-2)Man(a1-6)][Gal(b1-4)GlcNAc(b1-4)]Man(b1-4)GlcNAc(b1-4)[Fuc(a1-6)]GlcNAc
# In short: as §1
# [3] = biological target: Gal(b1-4)GlcNAc(b1-2)Man(a1-3)[Gal(b1-4)GlcNAc(b1-2)Man(a1-6)][GlcNAc(b1-4)]Man(b1-4)GlcNAc(b1-4)[Fuc(a1-6)]GlcNAc
# In short: as §1
# [4] = biological target: Gal(b1-4)GlcNAc(b1-2)Man(a1-3)[GlcNAc(b1-2)Man(a1-6)]Man(b1-4)GlcNAc(b1-4)GlcNAc
# In short: as §1
# [5] = biological target: Gal(b1-4)GlcNAc(b1-2)Man(a1-3)[GlcNAc(b1-4)][Gal(b1-4)GlcNAc(b1-2)Man(a1-6)]Man(b1-4)GlcNAc(b1-4)GlcNAc
# In short: as §1
# [6] = biological target: Gal(b1-4)GlcNAc(b1-2)Man(a1-3)[Man(a1-6)]Man(b1-4)GlcNAc(b1-4)GlcNAc
# In short: as §1
# [7] = biological target: Gal(b1-4)GlcNAc(b1-2)Man(a1-6)Man(b1-4)GlcNAc(b1-4)GlcNAc
# In short: as §1
# [8] = biological target: Gal(b1-4)GlcNAc(b1-2)Man(a1-6)[GlcNAc(b1-2)Man(a1-3)]Man(b1-4)GlcNAc(b1-4)GlcNAc
# In short: as §1
# [9] = biological target: Gal(b1-4)GlcNAc(b1-2)Man(a1-6)[Man(a1-3)]Man(b1-4)GlcNAc(b1-4)GlcNAc
# In short: as §1
# [10] = biological target: Gal(b1-4)GlcNAc(b1-2)[Gal(b1-4)GlcNAc(b1-4)]Man(a1-3)[Gal(b1-4)GlcNAc(b1-2)Man(a1-6)]Man(b1-4)GlcNAc(b1-4)GlcNAc
# In short: as §1
# [11] = biological target: Gal(b1-4)GlcNAc(b1-2)[Gal(b1-4)GlcNAc(b1-4)]Man(a1-3)[Gal(b1-4)GlcNAc(b1-2)[Gal(b1-4)GlcNAc(b1-6)]Man(a1-6)]Man(b1-4)GlcNAc(b1-4)GlcNAc
# In short: as §1
# [12] = biological target: Gal(b1-4)GlcNAc(b1-2)[Gal(b1-4)GlcNAc(b1-4)]Man(a1-3)[GlcNAc(b1-4)][Gal(b1-4)GlcNAc(b1-2)Man(a1-6)]Man(b1-4)GlcNAc(b1-4)GlcNAc
# In short: as §1
# [13] = biological target: Gal(b1-4)GlcNAc(b1-2)[Gal(b1-4)GlcNAc(b1-4)]Man(a1-3)[GlcNAc(b1-4)][Gal(b1-4)GlcNAc(b1-2)[Gal(b1-4)GlcNAc(b1-6)]Man(a1-6)]Man(b1-4)GlcNAc(b1-4)GlcNAc
# In short: as §1
# [14] = biological target: Gal(b1-4)GlcNAc(b1-2)[Gal(b1-4)GlcNAc(b1-6)]Man(a1-6)[Gal(b1-4)GlcNAc(b1-2)Man(a1-3)]Man(b1-4)GlcNAc(b1-4)GlcNAc
# In short: as §1
# [15] = biological target: Gal(b1-4)GlcNAc(b1-2)[Gal(b1-4)GlcNAc(b1-6)]Man(a1-6)[Gal(b1-4)GlcNAc(b1-2)Man(a1-3)]Man(b1-4)GlcNAc(b1-4)[Fuc(a1-6)]GlcNAc
# In short: as §1
# [16] = biological target: Gal(b1-4)GlcNAc(b1-2)[Gal(b1-4)GlcNAc(b1-6)]Man(a1-6)[GlcNAc(b1-4)][Gal(b1-4)GlcNAc(b1-2)Man(a1-3)]Man(b1-4)GlcNAc(b1-4)GlcNAc
# In short: as §1
# [17] = biological target: Gal(b1-4)GlcNAc(b1-2)[Gal(b1-4)GlcNAc(b1-6)]Man(a1-6)[GlcNAc(b1-4)][Gal(b1-4)GlcNAc(b1-2)[Gal(b1-4)GlcNAc(b1-4)]Man(a1-3)]Man(b1-4)GlcNAc(b1-4)[Fuc(a1-6)]GlcNAc
# In short: as §1
# [18] = biological target: Gal(b1-4)GlcNAc(b1-3)Gal(b1-3)GalNAc
# In short: as §1
# [19] = biological target: Gal(b1-4)GlcNAc(b1-3)Gal(b1-3)GlcNAc
# In short: as §1
binder,measurement,setting,value
B1,glycan array binding signal (z-score),[1],0.983
same,glycan array binding signal (z-score),[2],-0.524
same,glycan array binding signal (z-score),[3],-0.8
same,glycan array binding signal (z-score),[4],-0.039
same,glycan array binding signal (z-score),[5],-0.249
same,glycan array binding signal (z-score),[6],-0.443
same,glycan array binding signal (z-score),[7],-0.754
same,glycan array binding signal (z-score),[8],-0.169
same,glycan array binding signal (z-score),[9],-0.969
same,glycan array binding signal (z-score),[10],0.311
same,glycan array binding signal (z-score),[11],0.439
same,glycan array binding signal (z-score),[12],-0.182
same,glycan array binding signal (z-score),[13],0.311
same,glycan array binding signal (z-score),[14],-0.741
same,glycan array binding signal (z-score),[15],-0.37
same,glycan array binding signal (z-score),[16],-0.236
same,glycan array binding signal (z-score),[17],0.616
same,glycan array binding signal (z-score),[18],-0.459
same,glycan array binding signal (z-score),[19],-0.533

# 2 records drawn at random from those above, as already listed:
binder,measurement,setting,value
B1,glycan array binding signal (z-score),[19],-0.533
same,glycan array binding signal (z-score),[6],-0.443

# From the supplement of paper PMC8728848
